Some peptides are written in HELM: one residue between dots, names in brackets for other building blocks, links after the first $.
Assay: general procedure: Fmoc solid-phase peptide synthesis; chlorotrityl resin (loaded with Fmoc-Hnv-OAll, 0.2 mmol/g)
Details: whole synthesis; for isolated yield: scale of the general procedure 0.2 mmol (1000 mg resin)

| Substance | isolated mass [mg] | isolated yield [%] |
| --- | --- | --- |
| PEPTIDE1{[Cbz].A.A.T.A.[Ahp-Leu].[NMePhe].V}$PEPTIDE1,PEPTIDE1,4:R3-8:R2$$$V2.0 | 1.2 | 0.6 |
| PEPTIDE1{[Cbz].A.A.T.L.[Ahp-Leu].[NMePhe].V}$PEPTIDE1,PEPTIDE1,4:R3-8:R2$$$V2.0 | 11.8 | 6.1 |
| PEPTIDE1{[Cbz].A.A.T.V.[Ahp-Leu].[NMeAla].V}$PEPTIDE1,PEPTIDE1,4:R3-8:R2$$$V2.0 | 1.9 | 1.1 |
| PEPTIDE1{[Cbz].A.A.T.V.[Ahp-Leu].[NMePhe].V}$PEPTIDE1,PEPTIDE1,4:R3-8:R2$$$V2.0 | 9.9 | 5.2 |
| PEPTIDE1{[Cbz].A.A.T.[Abu].[Ahp-Leu].[NMePhe].V}$PEPTIDE1,PEPTIDE1,4:R3-8:R2$$$V2.0 | 1.2 | 1.3 |
| PEPTIDE1{[Cbz].A.A.T.[AllylGly].[Ahp-Leu].[NMePhe].V}$PEPTIDE1,PEPTIDE1,4:R3-8:R2$$$V2.0 | 1.1 | 1.1 |
| PEPTIDE1{[Cbz].A.A.T.[Ile-b-open].[Ahp-Leu].[NMePhe].V}$PEPTIDE1,PEPTIDE1,4:R3-8:R2$$$V2.0 | 2.3 | 1.2 |
| PEPTIDE1{[Cbz].A.A.T.[Nva].[Ahp-Leu].[NMePhe].V}$PEPTIDE1,PEPTIDE1,4:R3-8:R2$$$V2.0 | 1.0 | 1.0 |
| PEPTIDE1{[Cbz].A.A.T.[Pra].[Ahp-Leu].[NMePhe].V}$PEPTIDE1,PEPTIDE1,4:R3-8:R2$$$V2.0 | 2.4 | 2.5 |
| PEPTIDE1{[Cbz].A.A.[3OHLeu].V.[Ahp-Leu].[NMePhe].V}$PEPTIDE1,PEPTIDE1,4:R3-8:R2$$$V2.0 | 12.5 | 6.3 |
